Measured values: publication PMC8847585, “Induction of senescence-associated secretory phenotype underlies the therapeutic efficacy of PRC2 inhibition in cancer” (Cell Death & Disease, 2022)

Test system: H3K27me3 in HeLa cell
Assay: Inhibition of cellular H3K27me3 (western blot quantification)
Format: cell-based
Conditions: Homo sapiens, 72 hr of treatment, n = 3
Description: Cells were washed once with cold PBS and lysed by RIPA lysis buffer and incubated with 4 × SDS loading buffer at 95 °C for 10 min. Whole cell proteins were used for electrophoresis and then transferred to a nitrocellulose membrane. The membrane was blocked with Tris buffered saline containing 0.075% Tween-20 and 5% non-fat milk. Then the membranes were incubated with primary antibodies overnight at 4 °C. The next day, membranes were incubated with secondary antibodies for 1 h at room temperature.

- IC50: 22.5 nM
Compound: CCN(c1cc(-c2ccc(CN3CCOCC3)cc2)cc(C(=O)NCc2c(C)cc(C)[nH]c2=O)c1C)C1CCOCC1 [EPZ6438]
